Experimental findings from PubChem BioAssay AID1458 (National Center for Advancing Translational Sciences (NCATS), 2008) are described below.

In all, about 210,000 compounds went through this assay and about 5,900 (2.8%) were called active. Another 5% or so got no clear call; they are omitted. Calls come from the whole dose curve; as a rule, active = well fitted activation curve with a large enough effect; inconclusive = small, poorly fitted or top-dose-only effect; inactive = no such curve, though single readings can be large or run the other way. The list shows a part of the results, in another mix than the full data. The source gives no active or inactive call for entries shown without one.
Potency is the fitted concentration of half-maximal effect.

This experiment is described as follows: qHTS Assay for Enhancers of SMN2 Splice Variant Expression. For activity change, positive = activation: % of control where 0% means no effect. Note: nearly all actives have a fitted effect of over 55% in size. Conditions: HEK293 SMN2-luciferase splicing reporter, luminescence, 30-36 h; activity change, positive = activation: at 46.1 µM (top of the series) unless noted. In short, it runs like this: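 HEK293 cells carry an SMN2 minigene-luciferase reporter in which exon 7 inclusion puts luciferase in frame. Cells were seeded at 2000 cells/well, attached for 10-12 hours, then exposed to compounds for 30-36 hours at 37C before ONE-Glo luminescence.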
On the technique in general: In qHTS, concentration-response curves come from the screen itself.
For the compound `C/C(=N\NC(=O)Cc1cccn1C)c1cccs1`, the activity change, positive = activation was -4.51%.
Still for that read-out and setting: the value for `COc1ccc(C(=O)c2c(N)c(-c3nc(-c4ccc5c(c4)OCO5)cs3)c3ccccn23)cc1` was 43.6%; that for `CCN(CC)S(=O)(=O)c1ccc(NC(=O)CSc2nnc(-c3ccc(F)cc3)o2)cc1` was -50%; that for `Cc1ccc(NC(=S)N(Cc2ccco2)C(C)c2cccs2)cc1` (stereo not given) was 40%.
Still for that read-out and setting: the value for `C=CCNc1nc2c(c(=O)n(C)c(=O)n2C)n1Cc1ccc(F)cc1` was inactive: -86.3%; that for `COc1ccc(C(=O)NCCc2ccc(S(N)(=O)=O)cc2)cc1OC` was 31.1%.
With `CC(C)(C#CCN1CCCCC1)OCCOC(c1ccccc1)c1ccccc1`, the activity change, positive = activation was -59.2%.
As for `O=C(CCS(=O)(=O)c1ccc(Br)cc1)Nc1cc(F)ccc1F`, the activity change, positive = activation was determined as 0.913%.
In the case of `CCCn1c(SCC(=O)N2CCN(c3ccc(OC)cc3)CC2)nc2c1c(=O)n(C)c(=O)n2C`, the “activity change, positive = activation” value was inactive: -38.8%.
Consider `COC(=O)C1(Cc2ccccc2)C2c3cc(C(=O)N4CCCC4)n(Cc4ccc(OC(F)(F)F)cc4)c3CC2CN1C(=O)c1ccccc1` (stereo not given), for which the “activity change, positive = activation” value is inactive: -45.9%.
On the same count and under the same terms, the value for `c1ccc2c(-c3nc(C4CCCCC4)no3)cc(-c3ccncc3)nc2c1` was -80.8%; that for `COCCOC(=O)c1[nH]c2c(c1C)C(=O)CC(c1cccs1)C2` (stereo not given) was inactive: -57%.
Still for that read-out and setting: then `CC(=O)SCC(=O)N=c1sc2cc(F)ccc2n1C`, with inactive: -19.1%.
Take `Cc1ccc(NC(=O)/C=C/c2ccco2)nc1`: the Potency was active: 14.1 µM.
For the compound `CC(C)OC(=O)c1ccc(NC(=O)c2ccco2)cc1`, the activity change, positive = activation turned out to be 93.4%.
Still for that read-out and setting: then `Cc1ccc(S(=O)(=O)Nc2cc(Cl)c(O)cc2C)cc1`, with -42.4%.
As to `NC(=O)c1ccccc1N/C=C/C(=O)c1ccco1`, the Potency was active: 11.2 µM.
`CC1=NN(c2ccccc2)C(=O)/C1=C\C=C1/N(C)c2ccccc2C1(C)C`: the “activity change, positive = activation” value is inactive: -21.6%.
As to `Cc1ccc(O)c(C(=O)c2cnc3c(c2)CN(C)C(=O)N3)c1`, the activity change, positive = activation stood at 34.2%.
Turning to `O=C(Oc1c(CN2CCOCC2)cc(Cl)c2cccnc12)c1ccc(F)cc1`, the activity change, positive = activation is -57.2%.
In the case of `CCOc1ccc(NC(=O)c2ccc3c(SCC(=O)O)c4c(nc3c2)CCC4)cc1`, the “activity change, positive = activation” value was inactive: -64.8%.
For `O=C(Nc1nc2ccc(F)cc2s1)C1CCCO1` (stereo not given), the Potency was active: 15.8 µM.
With `O=c1[nH]c2cc3c(cc2cc1C(c1nnnn1Cc1ccccc1)N1CCN2CCCC2C1)OCCO3` (stereo not given), the activity change, positive = activation turned out to be 37.8%.
For `COc1cc2ncnc(Nc3cccc(Cl)c3)c2cc1OC`, the Potency result is “inactive”.
Consider `COCCn1nnnc1C(c1ccc(OC)cc1OC)N1CCN(c2ccccc2)CC1` (stereo not given), for which the activity change, positive = activation came out at 34.9%.
Take `CC(C)CN(C(=O)c1ccc(=O)n(C)n1)c1nc2ccccc2s1`: the Potency was active: 20 µM.
Turning to `Cc1cccc(NC(=O)Cc2coc3ccc4ccccc4c23)n1`, the activity change, positive = activation was 30.7%.
Consider `N#Cc1ccccc1OCCN1C(=O)c2ccccc2C1=O`, for which the activity change, positive = activation came to 53.2%.
As for `CC1(C)OC2CC3C4CC(F)C5=CC(=O)CC[C@@]5(C)C4C(O)C[C@@]3(C)[C@]2(C(=O)CO)O1` (stereo not given in full), the “activity change, positive = activation” value is inactive: 4.91%.
The same measure, in the same setting: the value for `CC(=O)c1c(C)[nH]c(C(=O)OCC(=O)Nc2ccccc2Cl)c1C` was -62.7%.
Still for that read-out and setting: the value for `CC(C)n1c(SCC(=O)NCc2ccco2)nc2c1c(=O)n(C)c(=O)n2C` was 31.9%.
Take `O=C1OCCC1Sc1nnc(-c2ccccc2Cl)n1Cc1ccccc1` (stereo not given): the activity change, positive = activation came out at 21.5%.
The same measure, in the same setting: then `O=C(CSc1ncnc2sc3c(c12)CCCC3)N1CCC(c2noc3ccc(F)cc23)CC1`, with inactive: -49.9%.
The same measure, in the same setting: the value for `O=C(c1ccc(-c2nc3ccccc3s2)s1)N1CCOCC1` was -63.4%; that for `c1ccc(Nc2nc(N3CCOCC3)c3ccccc3n2)cc1` was -42%; that for `COc1ccccc1CC(=O)Nc1ccc(O)cc1C(=O)O` was 45.7%.
The same measure, in the same setting: then `Cc1cccc(NC(=O)Cn2cc([N+](=O)[O-])cn2)n1`, with -34.1%; and `O=C(O)C1CC=C(Cl)CC1C(=O)NCc1ccccc1` (stereo not given), with 29%.
Turning to `O=C(CSc1nnnn1-c1ccccc1)CC(=O)Nc1ccc(Cl)cc1`, the “activity change, positive = activation” value was inactive: -48%.
Turning to `O=C(NCCc1ccccn1)c1ccc(OC(F)F)cc1`, the Potency is active: 11.2 µM.
Take `Nc1ccc2c(c1)C(=O)N(CCCC(=O)O)C2=O`: the activity change, positive = activation was determined as 34.2%.
Same read-out and setting: the value for `CC(=O)Oc1ccccc1C1OCCN1C(C)=O` (stereo not given) was 33.3%.
In the case of `CC(=O)Nc1cc2nn(-c3ccccc3)nc2cc1Cl`, the Potency was active: 11.2 µM.
Take `COc1ccc(F)cc1S(=O)(=O)n1cc(C)nc1-c1ccccc1`: the Potency was active: 3.55 µM.
On to `CCOc1ccc(C2c3c(oc4ccccc4c3=O)C(=O)N2CCCN2CCOCC2)cc1` (stereo not given), for which the activity change, positive = activation turned out to be 42.1%.
Still for that read-out and setting: then `Cc1cccc(OCCSc2nncn2C)c1`, with 42.7%; and `COc1ccccc1-n1c(=S)sc2c(=O)n(Cc3ccco3)c(SC)nc21`, with 18.7%.
Consider `COC(=O)c1ccc(NN=Nc2ccc(C)cc2)cc1`, for which the Potency is active: 11.2 µM.
The same measure, in the same setting: then `CCn1cnc2sc(-c3ccccc3)cc2c1=O`, with active: 10 µM; and `NNC(=O)c1cccc(COc2ccc(Br)cc2)c1`, with active: 1 µM; and `S=C(c1ccc(-c2cccc(Cl)c2)o1)N1CCCCC1`, with active: 11.2 µM.
As for `CC(C)Cn1c(SCc2nc3ccccc3c(=O)[nH]2)nc2ccccc2c1=O`, the “activity change, positive = activation” value was inactive: -30.7%.
Same read-out and setting: then `Cc1ccc2cc(C)c(N3CCN(c4ccccn4)CC3)nc2c1`, with -37.7%; and `CC(=O)N/C(=C\c1cccs1)C(=O)O`, with inactive: -14.3%; and `CCn1c(/C=C2/C(=O)N(C)c3ccccc32)nc2ccccc2c1=O`, with -52%.
On to `CCN(CC)S(=O)(=O)c1ccc(Cl)c(NC(=O)COC(=O)c2c(C)noc2C)c1`, for which the “activity change, positive = activation” value is inactive: -38.2%.
On the same count and under the same terms, the value for `O=C(c1cc2ccccc2oc1=O)N1CCN(Cc2ccc3c(c2)OCO3)CC1` was 28.4%.
On the same count and under the same terms, the value for `CCOC(=O)c1c(C)[nH]c(C(=O)Nc2ccc3c(c2)OCO3)c1C` was 241%.
On the same count and under the same terms, then `Cc1ccnc(NS(=O)(=O)c2ccc(NC(=O)C3COc4ccccc4O3)cc2)n1` (stereo not given), with 42.7%.
As for `CCCOc1ccccc1C1NC(=O)NC(C)=C1C(=O)OCc1ccccc1` (stereo not given), the activity change, positive = activation was -31.6%.
Still for that read-out and setting: the value for `CC(C)c1cc(C(=O)NCCc2ccccc2)no1` was 302%.
For the compound `COC(=O)c1ccccc1NC(=O)c1ccc(-c2ccccc2F)o1`, the Potency was active: 5.01 µM.
The same measure, in the same setting: then `S=C(Nc1ccc(Br)cc1)N1CCCC1`, with active: 8.91 µM.
With `c1ccc2c(COn3nnc4ccccc43)cccc2c1`, the activity change, positive = activation is 32.5%.
Turning to `Cc1cc(NC(c2nnc(-c3ccccc3)o2)c2ccccc2F)ccc1Br` (stereo not given), the activity change, positive = activation is 55.5%.
Turning to `O=c1c(Cl)c(N2CCCCC2)cnn1-c1nc2ccccc2[nH]1`, the “activity change, positive = activation” value is inactive: -62.7%.
On the same count and under the same terms, then `CS(=O)(=O)N1CCc2cc(-c3csc(NC(=O)Cc4cccs4)n3)ccc21`, with -49.1%; and `O=C(CSc1nnnn1-c1ccc(F)cc1)NC1CCCCC1`, with 35.4%.
Still for that read-out and setting: the value for `Cn1cnc2c1c(=O)n(Cc1c(Cl)cccc1Cl)c(=O)n2C` was 36.3%; that for `CS(=O)(=O)N1CCc2cc(S(=O)(=O)Nc3ccc4c(c3)OCCO4)ccc21` was -35.3%.
